# Some of the results follow. The calls rarely recur for the same compound in another form.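 In K562 cells expressing nanoluciferase-fused kinases, luminescence was recorded at 4 h intervals between 2 and 18 h, normalized as percent of control with DMSO at 100% and a positive control at 0%. A significant (2 sigma) signal drop marks a time point as decreased. The authors' rule for a hit is not shown and takes in more than the number of time points.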
# Protein sequences, listed by entry. Tags and fused reporters are not part of them. Lines headed by an entry give the natural chain unless they say otherwise; changes in a name come on top.
# UniProt P53671: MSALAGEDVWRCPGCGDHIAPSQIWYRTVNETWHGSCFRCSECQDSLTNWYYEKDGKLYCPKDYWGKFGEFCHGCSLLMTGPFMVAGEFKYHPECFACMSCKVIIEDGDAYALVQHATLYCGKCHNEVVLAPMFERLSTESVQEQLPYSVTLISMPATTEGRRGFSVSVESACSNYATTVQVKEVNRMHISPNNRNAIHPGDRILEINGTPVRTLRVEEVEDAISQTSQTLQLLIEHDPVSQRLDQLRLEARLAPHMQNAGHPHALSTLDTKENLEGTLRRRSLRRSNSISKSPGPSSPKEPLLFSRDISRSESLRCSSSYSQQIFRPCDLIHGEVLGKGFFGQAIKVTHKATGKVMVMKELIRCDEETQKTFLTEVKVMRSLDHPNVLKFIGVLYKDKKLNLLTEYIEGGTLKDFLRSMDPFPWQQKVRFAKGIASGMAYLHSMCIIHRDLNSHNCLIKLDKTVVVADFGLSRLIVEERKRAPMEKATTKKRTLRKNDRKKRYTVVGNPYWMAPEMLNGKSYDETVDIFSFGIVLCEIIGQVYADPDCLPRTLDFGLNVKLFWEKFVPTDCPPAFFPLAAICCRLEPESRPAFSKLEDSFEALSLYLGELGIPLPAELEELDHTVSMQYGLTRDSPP
# UniProt P31749: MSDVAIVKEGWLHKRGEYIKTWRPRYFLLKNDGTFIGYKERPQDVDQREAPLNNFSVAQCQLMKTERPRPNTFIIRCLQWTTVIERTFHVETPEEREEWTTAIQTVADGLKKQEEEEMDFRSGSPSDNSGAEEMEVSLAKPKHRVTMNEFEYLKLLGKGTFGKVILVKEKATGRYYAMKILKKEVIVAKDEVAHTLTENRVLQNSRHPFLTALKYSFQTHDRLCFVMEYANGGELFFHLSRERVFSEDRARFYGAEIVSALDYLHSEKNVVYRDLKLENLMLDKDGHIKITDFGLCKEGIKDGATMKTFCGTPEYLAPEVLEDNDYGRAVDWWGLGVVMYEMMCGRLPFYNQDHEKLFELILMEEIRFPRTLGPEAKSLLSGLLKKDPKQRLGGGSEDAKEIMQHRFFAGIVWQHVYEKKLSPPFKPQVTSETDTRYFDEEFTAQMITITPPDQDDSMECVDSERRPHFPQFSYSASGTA
# UniProt P28482, whole entry: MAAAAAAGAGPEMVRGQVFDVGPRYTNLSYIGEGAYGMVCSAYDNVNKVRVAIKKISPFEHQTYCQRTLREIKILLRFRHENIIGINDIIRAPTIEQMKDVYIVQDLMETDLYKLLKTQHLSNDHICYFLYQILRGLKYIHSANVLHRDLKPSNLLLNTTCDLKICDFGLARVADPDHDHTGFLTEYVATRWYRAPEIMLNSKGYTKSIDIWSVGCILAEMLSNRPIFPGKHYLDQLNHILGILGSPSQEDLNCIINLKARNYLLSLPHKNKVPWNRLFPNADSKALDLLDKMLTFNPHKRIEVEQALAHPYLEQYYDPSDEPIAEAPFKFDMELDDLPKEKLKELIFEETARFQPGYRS
# UniProt Q96GD4, whole entry: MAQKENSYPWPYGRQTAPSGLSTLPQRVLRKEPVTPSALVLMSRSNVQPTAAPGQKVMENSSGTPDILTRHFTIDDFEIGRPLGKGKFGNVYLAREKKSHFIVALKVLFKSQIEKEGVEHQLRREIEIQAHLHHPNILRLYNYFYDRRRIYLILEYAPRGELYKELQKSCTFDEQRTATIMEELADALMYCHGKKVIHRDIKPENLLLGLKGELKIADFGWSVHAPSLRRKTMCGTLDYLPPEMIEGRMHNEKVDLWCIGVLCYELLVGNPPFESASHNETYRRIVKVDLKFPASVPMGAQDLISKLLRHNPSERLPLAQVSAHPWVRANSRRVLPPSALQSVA
# UniProt P48730: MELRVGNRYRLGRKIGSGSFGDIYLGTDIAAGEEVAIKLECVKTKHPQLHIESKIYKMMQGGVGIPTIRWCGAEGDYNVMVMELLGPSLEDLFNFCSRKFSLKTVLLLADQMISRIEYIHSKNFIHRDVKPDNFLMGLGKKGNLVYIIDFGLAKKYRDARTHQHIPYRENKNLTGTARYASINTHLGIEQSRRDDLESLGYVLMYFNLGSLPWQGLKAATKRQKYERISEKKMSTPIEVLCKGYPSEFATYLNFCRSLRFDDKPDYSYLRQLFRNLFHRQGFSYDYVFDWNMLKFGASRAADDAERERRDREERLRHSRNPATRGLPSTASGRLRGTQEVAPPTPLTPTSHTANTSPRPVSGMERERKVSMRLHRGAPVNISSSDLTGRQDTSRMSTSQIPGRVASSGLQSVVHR
# UniProt Q15208: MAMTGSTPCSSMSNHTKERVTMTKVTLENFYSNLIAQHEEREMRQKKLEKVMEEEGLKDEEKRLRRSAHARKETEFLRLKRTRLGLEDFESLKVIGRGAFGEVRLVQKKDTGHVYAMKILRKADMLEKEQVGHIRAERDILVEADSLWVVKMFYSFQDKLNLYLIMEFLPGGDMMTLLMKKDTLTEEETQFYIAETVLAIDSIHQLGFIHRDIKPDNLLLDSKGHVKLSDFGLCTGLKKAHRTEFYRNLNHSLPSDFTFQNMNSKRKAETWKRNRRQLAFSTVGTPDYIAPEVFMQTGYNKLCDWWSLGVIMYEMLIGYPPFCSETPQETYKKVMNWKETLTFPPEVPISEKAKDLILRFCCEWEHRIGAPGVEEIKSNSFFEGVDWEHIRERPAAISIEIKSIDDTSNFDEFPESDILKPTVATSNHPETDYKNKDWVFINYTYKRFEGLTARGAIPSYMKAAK
# UniProt P29597: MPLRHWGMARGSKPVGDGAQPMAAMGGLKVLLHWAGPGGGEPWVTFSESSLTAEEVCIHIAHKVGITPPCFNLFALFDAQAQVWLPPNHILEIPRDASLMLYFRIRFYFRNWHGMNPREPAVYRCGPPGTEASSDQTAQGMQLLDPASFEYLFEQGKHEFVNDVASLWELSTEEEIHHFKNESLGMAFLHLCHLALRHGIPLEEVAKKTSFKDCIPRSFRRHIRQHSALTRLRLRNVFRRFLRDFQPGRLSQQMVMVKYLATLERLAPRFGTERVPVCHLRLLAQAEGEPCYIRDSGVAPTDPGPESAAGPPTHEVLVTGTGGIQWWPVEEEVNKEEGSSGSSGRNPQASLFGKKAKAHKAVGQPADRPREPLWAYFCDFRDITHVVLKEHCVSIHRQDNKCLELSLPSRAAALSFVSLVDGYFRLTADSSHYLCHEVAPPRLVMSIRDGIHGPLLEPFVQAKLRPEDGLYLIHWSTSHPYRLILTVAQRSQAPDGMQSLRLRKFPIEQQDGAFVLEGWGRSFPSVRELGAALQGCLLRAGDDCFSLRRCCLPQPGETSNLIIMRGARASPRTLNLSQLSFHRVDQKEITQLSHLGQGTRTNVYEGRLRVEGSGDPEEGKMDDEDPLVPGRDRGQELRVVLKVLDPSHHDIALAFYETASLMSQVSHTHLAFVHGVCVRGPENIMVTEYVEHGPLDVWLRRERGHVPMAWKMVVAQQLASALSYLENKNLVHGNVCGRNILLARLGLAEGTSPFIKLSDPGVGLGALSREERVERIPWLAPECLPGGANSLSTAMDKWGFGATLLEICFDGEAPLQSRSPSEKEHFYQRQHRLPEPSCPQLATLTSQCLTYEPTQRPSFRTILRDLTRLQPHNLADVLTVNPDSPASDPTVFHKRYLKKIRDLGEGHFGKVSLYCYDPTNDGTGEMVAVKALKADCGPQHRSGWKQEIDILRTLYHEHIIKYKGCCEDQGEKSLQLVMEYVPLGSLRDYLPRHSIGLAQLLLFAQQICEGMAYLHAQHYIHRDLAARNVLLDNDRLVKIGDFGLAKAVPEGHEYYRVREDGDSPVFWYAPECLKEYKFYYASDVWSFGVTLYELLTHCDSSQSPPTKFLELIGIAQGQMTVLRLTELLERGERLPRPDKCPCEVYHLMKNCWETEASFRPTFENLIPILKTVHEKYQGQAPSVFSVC
# UniProt Q9NYA1, whole entry: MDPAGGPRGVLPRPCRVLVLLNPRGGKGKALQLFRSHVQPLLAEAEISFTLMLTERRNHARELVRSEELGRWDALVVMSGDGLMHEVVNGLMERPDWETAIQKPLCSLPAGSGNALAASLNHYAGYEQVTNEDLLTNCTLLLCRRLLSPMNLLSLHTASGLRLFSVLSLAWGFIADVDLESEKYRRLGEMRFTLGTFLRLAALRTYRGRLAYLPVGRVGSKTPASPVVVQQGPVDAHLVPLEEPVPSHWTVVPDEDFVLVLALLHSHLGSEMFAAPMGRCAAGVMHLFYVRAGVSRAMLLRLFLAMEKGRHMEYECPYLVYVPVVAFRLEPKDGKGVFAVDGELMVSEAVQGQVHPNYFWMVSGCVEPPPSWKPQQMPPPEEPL
# UniProt Q15131: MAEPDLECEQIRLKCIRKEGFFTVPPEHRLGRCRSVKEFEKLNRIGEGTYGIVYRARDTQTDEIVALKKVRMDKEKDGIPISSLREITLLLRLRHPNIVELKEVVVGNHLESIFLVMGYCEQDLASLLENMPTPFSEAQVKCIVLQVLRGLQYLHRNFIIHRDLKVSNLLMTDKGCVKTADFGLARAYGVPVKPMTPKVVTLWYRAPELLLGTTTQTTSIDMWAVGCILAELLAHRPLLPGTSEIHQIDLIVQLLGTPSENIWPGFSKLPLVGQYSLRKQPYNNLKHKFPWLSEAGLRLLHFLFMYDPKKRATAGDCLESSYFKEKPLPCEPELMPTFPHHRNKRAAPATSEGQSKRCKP
# UniProt P53667: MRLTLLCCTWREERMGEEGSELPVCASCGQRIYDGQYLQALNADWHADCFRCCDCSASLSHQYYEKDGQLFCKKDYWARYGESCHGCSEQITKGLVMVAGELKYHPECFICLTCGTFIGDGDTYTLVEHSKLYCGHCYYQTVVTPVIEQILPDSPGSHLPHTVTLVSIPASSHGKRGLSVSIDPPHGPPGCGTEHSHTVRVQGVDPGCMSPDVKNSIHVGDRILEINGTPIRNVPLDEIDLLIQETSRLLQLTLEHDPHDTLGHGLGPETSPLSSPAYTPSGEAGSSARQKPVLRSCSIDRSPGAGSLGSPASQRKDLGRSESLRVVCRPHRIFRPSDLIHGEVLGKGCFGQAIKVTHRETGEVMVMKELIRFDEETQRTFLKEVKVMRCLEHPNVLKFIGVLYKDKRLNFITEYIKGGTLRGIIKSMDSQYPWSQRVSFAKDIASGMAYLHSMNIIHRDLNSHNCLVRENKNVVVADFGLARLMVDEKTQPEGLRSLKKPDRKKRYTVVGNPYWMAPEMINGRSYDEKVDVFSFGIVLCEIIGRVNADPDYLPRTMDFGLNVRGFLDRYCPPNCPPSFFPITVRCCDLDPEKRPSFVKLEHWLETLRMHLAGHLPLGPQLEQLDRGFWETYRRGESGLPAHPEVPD
# UniProt O15530: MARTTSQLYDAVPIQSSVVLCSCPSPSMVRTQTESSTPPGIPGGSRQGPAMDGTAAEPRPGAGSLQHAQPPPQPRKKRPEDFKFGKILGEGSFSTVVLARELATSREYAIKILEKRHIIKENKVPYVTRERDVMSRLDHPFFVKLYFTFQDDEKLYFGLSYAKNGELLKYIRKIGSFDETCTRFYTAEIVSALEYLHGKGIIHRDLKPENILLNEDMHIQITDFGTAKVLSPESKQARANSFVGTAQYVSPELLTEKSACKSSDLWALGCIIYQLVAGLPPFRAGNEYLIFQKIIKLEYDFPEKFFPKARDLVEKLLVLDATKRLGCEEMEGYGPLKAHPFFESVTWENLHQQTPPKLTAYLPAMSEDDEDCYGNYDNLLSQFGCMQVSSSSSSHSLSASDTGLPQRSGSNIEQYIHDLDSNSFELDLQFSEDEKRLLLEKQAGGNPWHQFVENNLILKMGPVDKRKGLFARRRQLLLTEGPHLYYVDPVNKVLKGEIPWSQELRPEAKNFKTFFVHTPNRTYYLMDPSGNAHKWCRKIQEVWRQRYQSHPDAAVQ
# UniProt P51813: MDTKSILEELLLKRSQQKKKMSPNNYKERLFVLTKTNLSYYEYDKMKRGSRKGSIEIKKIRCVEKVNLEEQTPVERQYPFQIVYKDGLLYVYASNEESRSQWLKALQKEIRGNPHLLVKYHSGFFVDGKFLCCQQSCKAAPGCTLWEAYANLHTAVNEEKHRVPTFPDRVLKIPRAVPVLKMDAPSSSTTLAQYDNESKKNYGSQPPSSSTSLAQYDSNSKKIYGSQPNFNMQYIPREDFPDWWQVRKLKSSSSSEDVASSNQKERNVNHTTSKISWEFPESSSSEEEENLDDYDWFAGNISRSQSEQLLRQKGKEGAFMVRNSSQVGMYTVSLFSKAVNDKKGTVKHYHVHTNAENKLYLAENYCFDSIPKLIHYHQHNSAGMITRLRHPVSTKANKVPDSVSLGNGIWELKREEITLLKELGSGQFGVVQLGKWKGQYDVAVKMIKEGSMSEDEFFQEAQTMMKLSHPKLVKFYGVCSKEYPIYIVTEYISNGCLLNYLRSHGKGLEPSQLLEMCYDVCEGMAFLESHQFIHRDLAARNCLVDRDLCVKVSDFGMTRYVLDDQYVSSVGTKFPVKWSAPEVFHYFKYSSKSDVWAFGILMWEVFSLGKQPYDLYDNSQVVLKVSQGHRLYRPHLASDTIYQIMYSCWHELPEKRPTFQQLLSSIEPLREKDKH
# Compound: C=CC(=O)Nc1cc(Nc2ncc(C(=O)OC(C)C)c(-c3cn(C)c4ccccc34)n2)c(OC)cc1N(C)CCN(C)C [Mobocertinib]
# Assay: number of time points (of 5) at which kinase-Nluc abundance scored as decreased, DMSO-normalised (count); higher = more persistent destabilization
# Conditions: 10 µM; K562; 2-18 h
row,Target,number of time points
1,PTK2 (UniProt Q05397),0
2,RAF1_S257L (clone: RAF1_mut) (UniProt P04049),0
3,CSNK1A1 (UniProt P48729),0
4,LIMK2 (UniProt P53671),0
5,PIK4CB (UniProt Q9UBF8),0
6,HER2 (UniProt P04626),4
7,PTK2B (UniProt Q14289),0
8,AKT1 (UniProt P31749),0
9,NTRK3 (UniProt Q16288),0
10,MAPK1 (UniProt P28482),0
11,RIPK2 (UniProt O43353),0
12,AURKB (UniProt Q96GD4),0
13,ERN1 (UniProt O75460),0
14,CSNK1D (UniProt P48730),0
15,ROR2 (UniProt Q01974),0
16,FGFR1 (UniProt P11362),0

row,Target,number of time points
1,STK38 (UniProt Q15208),0
2,CDK6 (UniProt Q00534),0
3,SYK (UniProt P43405),0
4,PDGFRB (UniProt P09619),0
5,MAP2K1 (UniProt Q02750),0
6,TYK2 (UniProt P29597),0
7,RIOK1 (UniProt Q9BRS2),0
8,SPHK1 (UniProt Q9NYA1),0
9,MAPK4 (UniProt P31152),0
10,CDK10 (UniProt Q15131),0
11,MAP2K2 (UniProt P36507),0
12,LIMK1 (UniProt P53667),0
13,PDPK1 (UniProt O15530),0
14,PAK4 (UniProt O96013),0
15,BMX (UniProt P51813),0

# Compound: C=CC(=O)Nc1cc(Nc2nccc(-c3cn(C)c4ccccc34)n2)c(OC)cc1N(C)CCN(C)C [Osimertinib (dimesylate)]
# Assay: as above
# Conditions: 2.5 µM; K562; 2-18 h
row,Target,number of time points
1,PTK2 (UniProt Q05397),0
2,RAF1_S257L (clone: RAF1_mut) (UniProt P04049),0
3,CSNK1A1 (UniProt P48729),0
4,LIMK2 (UniProt P53671),0
5,PIK4CB (UniProt Q9UBF8),0
6,HER2 (UniProt P04626),4
7,PTK2B (UniProt Q14289),0
8,AKT1 (UniProt P31749),0
9,NTRK3 (UniProt Q16288),0
10,MAPK1 (UniProt P28482),0
11,RIPK2 (UniProt O43353),0
12,AURKB (UniProt Q96GD4),0
13,ERN1 (UniProt O75460),0
14,CSNK1D (UniProt P48730),0
15,ROR2 (UniProt Q01974),0
16,FGFR1 (UniProt P11362),0

row,Target,number of time points
1,STK38 (UniProt Q15208),0
2,CDK6 (UniProt Q00534),0
3,SYK (UniProt P43405),0
4,PDGFRB (UniProt P09619),0
5,MAP2K1 (UniProt Q02750),0
6,TYK2 (UniProt P29597),0
7,RIOK1 (UniProt Q9BRS2),0
8,SPHK1 (UniProt Q9NYA1),0
9,MAPK4 (UniProt P31152),0
10,CDK10 (UniProt Q15131),0
11,MAP2K2 (UniProt P36507),0
12,LIMK1 (UniProt P53667),0
13,PDPK1 (UniProt O15530),0
14,PAK4 (UniProt O96013),0
15,BMX (UniProt P51813),0

# From the supplement of paper PMC12823440, “Inhibitors supercharge kinase turnover through native proteolytic circuits” (Nature, 2025)
